Measurements reported in PubChem BioAssay AID504808 (Drosophila RNAi Screening Center, 2011).
In all, the deposit lists about 21,000 reagents; below is an unselected part of those that have a named target and a result. In the full data, 18 (0.084%) are marked active. 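Raw counts without plate normalisation, one of two replicates; the ratio scores behind the calls were not deposited.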 The numbers tell different reagents against one gene apart. The record does not give: the amount of reagent, the time to read-out.

Screen: 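Chromatin factors that keep E2F targets switched off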 (primary screen)
Cell system: Drosophila S2 cells
Knock-down reagent: long dsRNA against Drosophila genes
Read-out: 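Dual luciferase plate measurements; E2F-specific signal taken as firefly over Renilla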
Scale: E2F firefly: higher = more E2F reporter activity; Renilla normaliser: higher = more normaliser reporter signal
Call rule: 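Called active if the normalised E2F reporter went up by over 50%; the cutoff is arbitrary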

CG17168
- E2F firefly, rep 1: 1.16e5
- Renilla normaliser, rep 1: 6968
- call: inactive

ken
- E2F firefly, rep 1: 41649
- Renilla normaliser, rep 1: 179
- call: inactive

CG11786
- E2F firefly, rep 1: 1.36e5
- Renilla normaliser, rep 1: 7193
- call: inactive

AQP
- E2F firefly, rep 1: 93274
- Renilla normaliser, rep 1: 3919
- call: inactive

Cfp1
- E2F firefly, rep 1: 93820
- Renilla normaliser, rep 1: 5411
- call: inactive

CG10949
- E2F firefly, rep 1: 70952
- Renilla normaliser, rep 1: 3297
- call: inactive

ssp
- E2F firefly, rep 1: 61198
- Renilla normaliser, rep 1: 3796
- call: inactive

X11Lbeta #1
- E2F firefly, rep 1: 1.19e5
- Renilla normaliser, rep 1: 5436
- call: inactive

X11Lbeta #2
- E2F firefly, rep 1: 1.29e5
- Renilla normaliser, rep 1: 5897
- call: inactive

ppk31
- E2F firefly, rep 1: 91565
- Renilla normaliser, rep 1: 3054
- call: inactive

CG13203
- E2F firefly, rep 1: 97559
- Renilla normaliser, rep 1: 3603
- call: inactive

Noa36
- E2F firefly, rep 1: 1886
- Renilla normaliser, rep 1: 876
- call: inactive

Just “Renilla normaliser, rep 1” (2 entries from above):
ssp	3796
X11Lbeta #1	5436
